Assay: Body weight follow-up in the same three-year placebo-controlled study
Type: in vivo, Patienten
Settings: 2 x 3 mg tgl., Idealgewicht: (Größe (cm) -100)-15%
Text: Es wurden 122 übergewichtige Personen ausgesucht, die im Mittel 25 % Übergewicht hatten. Diese Patienten gaben nach Aufklärung ihr Einverständnis, an dieser Studie über 3 Jahre teilzunehmen. Sie hatten bereits 5 bis 10 Versuche einer Gewichtsabnahme hinter sich, die alle […] verlaufen waren. Ein Diabetes mellitus war nach der Definition des WHO-Reports (Techn. Rep. Ser. 646, 1 bis 80, 1980) bei diesen Patienten ausgeschlossen. Sie wurden in zwei gleich starke Gruppen eingeteilt, so daß nach Alter sowie Ausmaß und Dauer des Übergewichts kein Unterschied bestand. Die Patienten wurden in halbjährlichen Abständen ambulant kontrolliert. Wie zu Beginn wurden bei diesen Kontrollen folgende Blutwerte gemessen: Blutsenkung, Blutbild, Nüchternblutzucker, IGTT, Gewicht, Cholesterin und Triglyzeride, Serumglutamat-Oxalat-Transaminase (SGOT), Serumglutamat-Pyruvat-Transaminase (SGPT). Damit wurden den Stoffwechsel beeinträchtigende Krankheiten ausgeschlossen. Als Parameter der Atherosklerose wurde die dopplersonographisch bestimmte maximale Blutströmungsgeschwindigkeit in der Arteria dorsalis pedis verwendet. Alle Patienten hatten eine schmerzfreie Gehstrecke von über 200 m, die Arteria dorsalis pedis war gut tastbar. Oszillographisch fand sich kein Anhalt für eine Mediasklerose. Das Vorliegen einer Neuropathie wurde mit den üblichen klinischen Methoden ausgeschlossen.
Die erste Gruppe erhielt 2 x 3 mg Captopril täglich, die zweite Gruppe entsprechend Placebo. Die Patienten hatten die Auflage, keine den Stoffwechsel beeinträchtigenden Medikamente wie z.B. Diuretika, Betablocker oder dergleichen einzunehmen. In beiden Gruppen schieden über den Zeitraum von 3 Jahren 28 Patienten aus verschiedenen Gründen aus. Die Gruppen veränderten sich dadurch jedoch nicht so sehr, daß sie statistisch nicht mehr auswertbar gewesen wären. […] Die Ergebnisse des Versuchs sind in der nachstehenden Tabelle 1 dargestellt. Tabelle I

For C[C@H](CS)C(=O)N1CCC[C@H]1C(=O)O [Captopril, 1-(2S)-3-Mercapto-2-methylpropionyl -L-prolin], the “GEWICHT (in % des Idealgew.)” value (1985 - 1 (start)) was 126,0 ± 1,1 % des Idealgew, the “GEWICHT (in % des Idealgew.)” value (1986 - 2) was 124,1 ± 1,6 % des Idealgew and the “GEWICHT (in % des Idealgew.)” value (1987 - 2) was 125,2 ± 1,1 % des Idealgew. The “GEWICHT (in % des Idealgew.)” value (1988 - 1) was 125,5 ± 1,6 % des Idealgew.

— EP0411395A2, “Use of ACE inhibitors for atherosclerosis-prophylaxis” (THERA PATENT-VERWALTUNGS-GmbH, priority 1989, dated 1991)
